Laboratory results published in paper doi:10.1101/2021.12.06.471412.
These are yes or no findings as the source states them, for the method shown. Some binding calls cover weakened binding; strength is not graded here.

Experiments:
[1] = biological target: T1, F-ATP synthase subunit γ (bovine heart) (bovine) (UniProt P05631); experiment: far-Western, overlay or dot blot
T1 sequence: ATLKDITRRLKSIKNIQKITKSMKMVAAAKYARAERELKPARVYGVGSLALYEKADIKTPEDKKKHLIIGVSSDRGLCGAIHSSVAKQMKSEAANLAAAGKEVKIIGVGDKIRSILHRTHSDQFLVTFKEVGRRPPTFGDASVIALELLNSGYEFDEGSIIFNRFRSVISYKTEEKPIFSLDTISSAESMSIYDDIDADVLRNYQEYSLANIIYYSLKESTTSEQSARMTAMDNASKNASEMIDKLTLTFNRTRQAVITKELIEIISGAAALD

[2] = biological target: recombinant mature human CyPD (human), P30405; experiment: far-Western, overlay or dot blot; settings: remark: other sources report otherwise

Row | Binder | binding [1] | binding [2]
1 | purified human TRAP1 (protein, UniProt Q12931 60-704) STQTAEDKEEPLHSIISSTESVQGSTSKHEFQAETKKLLDIVARSLYSEKEVFIRELISNASDALEKLRHKLVSDGQALPEMEIHLQTNAEKGTITIQDTGIGMTQEELVSNLGTIARSGSKAFLDALQNQAEASSKIIGQFGVGFYSAFMVADRVEVYSRSAAPGSLGYQWLSDGSGVFEIAEASGVRTGTKIIIHLKSDCKEFSSEARVRDVVTKYSNFVSFPLYLNGRRMNTLQAIWMMDPKDVREWQHEEFYRYVAQAHDKPRYTLHYKTDAPLNIRSIFYVPDMKPSMFDVSRELGSSVALYSRKVLIQTKATDILPKWLRFIRGVVDSEDIPLNLSRELLQESALIRKLRDVLQQRLIKFFIDQSKKDAEKYAKFFEDYGLFMREGIVTATEQEVKEDIAKLLRYESSALPSGQLTSLSEYASRMRAGTRNIYYLCAPNRHLAEHSPYYEAMKKKDTEVLFCFEQFDELTLLHLREFDKKKLISVETDIVVDHYKEEKFEDRSPAAECLSEKETEELMAWMRNVLGSRVTNVKVTLRLDTHPAMVTVLEMGAARHFLRMQQLAKTQEERAQLLQPTLEINPRHALIKKLNQLRASEPGLAQLLVDQIYENAMIAAGLVDDPRAMVGRLNELLVKALERH | binds | –
2 | purified human TRAP1, Q12931 60-704 (protein) STQTAEDKEEPLHSIISSTESVQGSTSKHEFQAETKKLLDIVARSLYSEKEVFIRELISNASDALEKLRHKLVSDGQALPEMEIHLQTNAEKGTITIQDTGIGMTQEELVSNLGTIARSGSKAFLDALQNQAEASSKIIGQFGVGFYSAFMVADRVEVYSRSAAPGSLGYQWLSDGSGVFEIAEASGVRTGTKIIIHLKSDCKEFSSEARVRDVVTKYSNFVSFPLYLNGRRMNTLQAIWMMDPKDVREWQHEEFYRYVAQAHDKPRYTLHYKTDAPLNIRSIFYVPDMKPSMFDVSRELGSSVALYSRKVLIQTKATDILPKWLRFIRGVVDSEDIPLNLSRELLQESALIRKLRDVLQQRLIKFFIDQSKKDAEKYAKFFEDYGLFMREGIVTATEQEVKEDIAKLLRYESSALPSGQLTSLSEYASRMRAGTRNIYYLCAPNRHLAEHSPYYEAMKKKDTEVLFCFEQFDELTLLHLREFDKKKLISVETDIVVDHYKEEKFEDRSPAAECLSEKETEELMAWMRNVLGSRVTNVKVTLRLDTHPAMVTVLEMGAARHFLRMQQLAKTQEERAQLLQPTLEINPRHALIKKLNQLRASEPGLAQLLVDQIYENAMIAAGLVDDPRAMVGRLNELLVKALERH | – | binds
